The test system of this assay is CD2F1 mice, L1210 leukemia ip, survival T/C. Nature of the assay: NCI In Vivo Anticancer Drug Screen. Data for tumor model L1210 Leukemia (intraperitoneal) in CD2F1 (CDF1) mice. The conditions noted are these: T/C endpoint: mean survival time, higher T/C = longer survival. Summed up: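 Tumor-bearing mice (transplanted tumor) were split into treated and vehicle control groups, and the measured endpoint of each treated group was divided by that of its vehicle controls.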

[1] abbreviates: dose: 100.0 mg/kg/injection, schedule: Q01DX009 (ip), vehicle: Klucel (hydroxypropylcellulose) (HPC).
Setting [2] is: dose: 200.0 mg/kg/injection, schedule: Q01DX009 (ip), vehicle: Klucel (hydroxypropylcellulose) (HPC).

The list does not hold the whole screen: it gathers some chemical classes. Other doses and runs of a compound may be missing. T/C is the treated group as % of the vehicle group. Some entries give survivors of the animals treated and no T/C: the source holds a T/C of zero for them, seemingly a mark for toxic or unscored doses. Some doses without a T/C left all or most animals alive at the check, yet need not have been tolerated: survival well below the control is almost never listed, so the zero probably covers shortened survival too. Counts of survivors are from the toxicity check (mostly the fifth day) where no day follows; animals may have died later. Schedule codes are those of the source, read here as Q, the interval in days (D) or hours (H), X, the number of doses. Some entries were tested several times; the results are listed from low to high. Where survival is the endpoint, the PubChem record calls one and a half times the control and up active, and a quarter to a half above the control has no call in these data; cut-offs in other NCI protocols can differ. Some T/C values are followed by the survivors on the day toxicity was checked, most often the fifth; without a count or a note in brackets, all were alive then.

`CCN(CC)CCOC(=O)C(O)(c1ccccc1)c1c(C)c(C)cc(C)c1C` (stereo unspecified): the T/C was 101 % of control (dose: 75.0 mg/kg/injection, schedule: Q01DX001 (ip), vehicle: saline); 98 % of control (dose: 150.0 mg/kg/injection, schedule: Q01DX001 (ip), vehicle: saline); 98 % of control (dose: 300.0 mg/kg/injection, schedule: Q01DX001 (ip), vehicle: saline).

For the molecule `CC(=O)SCC(Cl)Cl`, the T/C reads like this: (dose: 25.0 mg/kg/injection, schedule: Q01DX009 (ip), vehicle: saline with Tween-80) 94 % of control; (dose: 25.0 mg/kg/injection, schedule: Q04DX003 (ip), vehicle: saline) 92 % of control; (dose: 50.0 mg/kg/injection, schedule: Q01DX009 (ip), vehicle: saline with Tween-80) 94 % of control; (dose: 50.0 mg/kg/injection, schedule: Q04DX003 (ip), vehicle: saline) 100 % of control; (dose: 100.0 mg/kg/injection, schedule: Q01DX009 (ip), vehicle: saline with Tween-80) 96 % of control; (dose: 100.0 mg/kg/injection, schedule: Q04DX003 (ip), vehicle: saline with Tween-80) 97 % of control. In addition, the T/C (dose: 100.0 mg/kg/injection, schedule: Q04DX003 (ip), vehicle: saline) was 92 % of control. Besides, the survivor count runs as follows: (dose: 200.0 mg/kg/injection, schedule: Q04DX003 (ip), vehicle: saline with Tween-80) 6 of 6; (dose: 400.0 mg/kg/injection, schedule: Q04DX003 (ip), vehicle: saline with Tween-80) 0 of 6.

For the molecule `ClP1(Cl)=NP(Cl)(Cl)=NP(Cl)(Cl)=NP(Cl)(Cl)=N1`, the T/C runs as follows: (dose: 12.5 mg/kg/injection, schedule: Q01DX009 (ip), vehicle: Klucel (hydroxypropylcellulose) (HPC)) 101 and 104 % of control; (dose: 25.0 mg/kg/injection, schedule: Q01DX009 (ip), vehicle: Klucel (hydroxypropylcellulose) (HPC)) 97 and 101 % of control; (dose: 50.0 mg/kg/injection, schedule: Q01DX009 (ip), vehicle: Klucel (hydroxypropylcellulose) (HPC)) 100 and 104 % of control; under setting [1], 104 % of control; under setting [2], 103 % of control. Moreover, the survivor count reads like this: under setting [1], 3 of 6; under setting [2], 3 of 6; (dose: 400.0 mg/kg/injection, schedule: Q01DX009 (ip), vehicle: Klucel (hydroxypropylcellulose) (HPC)) 3 of 6 and 4 of 6.

For the molecule `F[P-](F)(F)(F)(F)F.c1ccc([C+](c2ccccc2)c2ccccc2)cc1`, the T/C was 103 % of control (dose: 100.0 mg/kg/injection, schedule: Q04DX002 (ip), vehicle: saline with Tween-80); 92 % of control (dose: 200.0 mg/kg/injection, schedule: Q04DX002 (ip), vehicle: saline with Tween-80); 107 % of control (dose: 400.0 mg/kg/injection, schedule: Q04DX002 (ip), vehicle: saline with Tween-80).

With `Cc1cc([N+](=O)[O-])cc([N+](=O)[O-])c1O`, the survivor count reads like this: (dose: 25.0 mg/kg/injection, schedule: Q01DX009 (ip), vehicle: saline) 6 of 6; (dose: 100.0 mg/kg/injection, schedule: Q01DX009 (ip), vehicle: saline) 0 of 6. For the same molecule, the T/C (dose: 50.0 mg/kg/injection, schedule: Q01DX009 (ip), vehicle: saline) was 92 % of control [4 of 6 alive].

(Values after PubChem BioAssay AID256 (DTP/NCI, 2004).)
